Measured values as given in PubChem BioAssay AID590 (National Center for Advancing Translational Sciences (NCATS), 2007).
“And” between values parts separate entries of the source, which are not always exact repeats. Identical values can stand only once. In all, about 59,000 compounds went through this assay and about 6,500 (11%) were called active. This list was built around the results that the source calls inconclusive (neither active nor inactive); the mix of calls is not that of the screen. Rule as the data show it: active = max dye-equivalent concentration above about 10 nM; inconclusive = mostly about 1.1 nM to 9.6 nM; inactive = weaker than that.

Assay: qHTS Assay for Spectroscopic Profiling in A350 Spectral Region
Settings: Compound autofluorescence, 340/450 nm, Alexa 350 dye-equivalents; stronger effect = higher value

Row | Structure (SMILES) | max dye-equivalent concentration
1 | Cc1cccc(CS(=O)(=O)Cc2ccc(C(=O)NCCCN3CCOCC3)o2)c1 | inconclusive: 1.4e-09 M
2 | CCN1CCN(c2nc3c(c(=O)n(C)c(=O)n3C)n2Cc2cccc3ccccc23)CC1 | inactive
3 | Cc1ccc(-c2cc(C(F)F)nc(NCc3cccnc3)n2)cc1 | active: 3.3e-08 M
4 | FC(F)(F)c1ccccc1-c1nc(NC2CCNCC2)c2ccccc2n1 | inactive
5 | Cc1cc2c(cc1C)/C(=C\C(N)=O)NC(C)(C)C2 | inconclusive: 1.1e-09 M
6 | COc1ccc(NC(=O)N2CC3(CCN(C(=O)c4ccc(OC)cc4)CC3)C2)cc1 | inactive
7 | Nc1nc2ncc(CNc3ccc(C(=O)N[C@@H](CCC(=O)O)C(=O)O)cc3)nc2c(=O)[nH]1 | active: 3.7e-07 M
8 | CCN(CC)C(=O)CN1CCN(c2ccccc2F)CC1 | inactive
9 | COC(=O)c1[nH]c2cccc(C)c2c1NC(=O)CN1CCN(C(=O)c2ccco2)CC1 | inconclusive: 1.8e-09 M
10 | CCOC(=O)c1oc2cc(O)cc(C)c2c(=O)c1-c1cscn1 | inconclusive: 3.4e-09 M
11 | CCCC(=O)OCC(=O)Nc1cc(C(C)(C)C)nn1-c1ccccc1 | inactive
12 | C=CCn1c(-c2ccoc2)n[nH]c1=S | inactive
13 | CCC1(C)Cc2c(sc3nc4n(c(=O)c23)CCCS4)CO1 (stereo not drawn) | active: 5.6e-08 M
14 | Nc1ccccc1NC(=O)c1ccccc1 | inconclusive: 5.2e-09 M
15 | CCN(CC)C(=O)CSc1nnc(-c2cccnc2)n1CCc1ccccc1 | inconclusive: 4e-09 M
16 | CSc1nc2nc3c(c(=O)n2[nH]1)CN(Cc1ccccc1)CC3 | inconclusive: 2e-09 M
17 | Cn1c(=N)c(S(=O)(=O)c2ccccc2)cc2c(=O)n3ccccc3nc21 | active: 1.4e-06 M
18 | COCCn1c(=O)cnc2cnc(Nc3ccccc3)nc21 | inactive
19 | CCn1c(=O)c(C)nn2c3ccccc3nc12 | inconclusive: 1.3e-09 M
20 | CCCCNc1c(CN)cnc2cc(Cl)ccc12 | inconclusive: 1.5e-09 M

Row | Structure (SMILES) | max dye-equivalent concentration
21 | COC(=O)c1[nH]c2ccc(F)cc2c1NC(=O)CCN1CCN(Cc2ccc3c(c2)OCO3)CC1 | inconclusive: 1.6e-09 M
22 | O=C(CN1C(=O)C2CC=C(Cl)CC2C1=O)Nc1ccc(C(=O)O)cc1 (stereo not drawn) | inconclusive: 1.4e-09 M
23 | COc1cccc(NC(=O)c2ccccc2NS(C)(=O)=O)c1 | inconclusive: 2.2e-09 M
24 | COC(=O)c1[nH]c2ccc(Cl)cc2c1NC(=O)CCN1CCOCC1 | inconclusive: 3.6e-09 M
25 | CCOC(=O)c1ccccc1NC(=O)Nc1ccc(OC)c(OC)c1 | inconclusive: 2.7e-09 M
26 | CN(C)C(=O)c1ccc(-c2nc(N3CCOCC3)c3ccccc3n2)cc1 | active: 3.7e-08 M
27 | CC(=O)NC1C(=O)Nc2c1cccc2C(F)(F)F (stereo not drawn) | inactive
28 | CCC(C(=O)NC1CCCCC1)N(CC1CCCO1)C(=O)CNS(=O)(=O)c1ccc(OC)cc1 (stereo not drawn) | inconclusive: 1.1e-09 M
29 | CCOC(=O)Cn1cnc2c(cnn2-c2ccc(Cl)cc2)c1=O | inactive
30 | FC(F)(F)c1ccccc1-c1ccc2ncnc(N3CCOCC3)c2c1 | inactive
31 | CN(Cc1ccccc1)c1ncnc2c1cnn2-c1ccccc1 | inactive
32 | COc1c2ccoc2nc2c(OC)c(OC[C@H](O)C(C)(C)O)ccc12 | active: 2.7e-08 M and active: 1.6e-08 M
33 | CCOC(=O)N1CCN(C(=O)Cc2ccsc2)CC1 | inactive
34 | COC(=O)c1[nH]c2cc(OC)c(OC)cc2c1NC(=O)CN1CCN(Cc2ccccc2)CC1 | active: 1.2e-08 M
35 | Cc1cccc(-n2c(SCc3cc(=O)n4ccsc4n3)nc3ccccc32)c1 | inconclusive: 4.6e-09 M
36 | CCCCOc1ccc(N2C(=O)CC(N(O)c3ccccc3)C2=O)cc1 (stereo not drawn) | inconclusive: 2.6e-09 M
37 | O=S(=O)(c1cccc(-c2nnc(SCc3nc4ccccc4s3)o2)c1)N1CCOCC1 | inconclusive: 1.6e-09 M
38 | CC(=O)c1cccc(S(=O)(=O)N(CCCO)Cc2cc3ccc(C)cc3[nH]c2=O)c1 | inactive
39 | COC(=O)c1ccc(Cn2nnc3ccccc3c2=O)o1 | inconclusive: 2.2e-09 M
40 | CCOC(=O)C1CCCN(CC(O)COc2ccc(OC)cc2C(C)(C)C)C1 (stereo not drawn) | inconclusive: 1.6e-09 M

Row | Structure (SMILES) | max dye-equivalent concentration
41 | COC(=O)c1ccccc1NC(=O)N1CCCC1 | inconclusive: 1.6e-09 M
42 | CCC(C)(C)n1nnnc1C(c1ccc2ncccc2c1)N1CCN(Cc2ccc3c(c2)OCO3)CC1 (stereo not drawn) | inactive
43 | COCCNC(=O)CCn1c(=O)oc2ccccc21 | active: 1.2e-08 M
44 | C=CCOC(=O)C1=C(C)NC(SCC(=O)OCC)=C(C#N)C1c1ccc(O)c(OC)c1 (stereo not drawn) | inconclusive: 2.7e-09 M
45 | COc1ncc2nc(-c3cc(F)cc(F)c3)c(=O)n(C3CC3)c2n1 | inconclusive: 4.3e-09 M
46 | CSc1ncccc1C(=O)OCC(=O)NC(=O)NCCC(C)C | inactive
47 | CC(C)(CO)NS(=O)(=O)c1ccc2c(c1)oc(=O)c1cc(S(=O)(=O)NC(C)(C)CO)ccc12 | inconclusive: 1.9e-09 M
48 | OCCNC1=NCCN1 | inconclusive: 2.1e-09 M
49 | Cc1cc(SCC(=O)Nc2c(C)n(C)n(-c3ccccc3)c2=O)n2c(nc3ccccc32)c1C#N | active: 1.6e-07 M
50 | Cc1onc(-c2ccccc2)c1C(=O)Nc1cccc(OC(C)C)c1 | inconclusive: 1.1e-09 M
51 | COc1ccc(NC(=O)c2cc3cc(OC)ccc3oc2=N)cc1 | inconclusive: 6.5e-09 M
52 | CCOC(=O)C1CCN(c2nc(C)nc3c2oc2ccccc23)CC1 | inconclusive: 2.1e-09 M
53 | CCCCCOC(=O)c1cc(=O)[nH]c2ccccc12 | active: 1.9e-08 M
54 | COc1cc(OC)cc(-c2nc3nc(C)c(CCC(=O)O)c(C)n3n2)c1 | inconclusive: 1.8e-09 M
55 | COc1ccc(CN(Cc2cc3ccc(C)cc3[nH]c2=O)Cc2nnnn2C2CCCC2)cc1 | inactive
56 | COC(=O)c1ccc(OCC2c3cc(OC)c(OC)cc3CCN2C(=O)C2CC2)cc1 (stereo not drawn) | inactive
57 | O=C(Nc1cccnc1)C1CCCN1S(=O)(=O)c1ccc(Cl)c(Cl)c1 (stereo not drawn) | inactive
58 | CCn1c(=N)c(C(=O)NC)cc2c(=O)n3cccc(C)c3nc21 | active: 1.9e-05 M
